In this experiment the target is T1, endogenous WAC (human (endogenous in HEK293T)), Q9BTA9.
T1 chain: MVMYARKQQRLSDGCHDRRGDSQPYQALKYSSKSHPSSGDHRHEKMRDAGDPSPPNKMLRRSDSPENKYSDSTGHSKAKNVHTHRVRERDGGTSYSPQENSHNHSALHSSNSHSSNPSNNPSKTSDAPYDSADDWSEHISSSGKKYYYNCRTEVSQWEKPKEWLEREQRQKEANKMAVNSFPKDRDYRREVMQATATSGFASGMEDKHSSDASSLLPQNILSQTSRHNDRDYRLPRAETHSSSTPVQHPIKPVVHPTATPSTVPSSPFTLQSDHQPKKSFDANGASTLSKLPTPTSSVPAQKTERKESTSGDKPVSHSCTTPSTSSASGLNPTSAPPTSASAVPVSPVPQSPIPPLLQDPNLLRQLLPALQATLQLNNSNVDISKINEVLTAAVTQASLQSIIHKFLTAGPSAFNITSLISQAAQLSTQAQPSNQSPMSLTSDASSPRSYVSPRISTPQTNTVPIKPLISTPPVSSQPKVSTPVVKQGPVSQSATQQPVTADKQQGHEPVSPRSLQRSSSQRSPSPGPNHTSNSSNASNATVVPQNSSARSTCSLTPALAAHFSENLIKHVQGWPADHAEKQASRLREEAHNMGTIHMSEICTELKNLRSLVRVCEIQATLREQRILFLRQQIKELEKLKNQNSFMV
Put plainly: affinity purification with mass spectrometry; endogenous WAC immunoprecipitated with a WAC antibody from HEK293T lysate; interactors identified by mass spectrometry. Conditions: remark: other sources report otherwise.

Results are given in words; binding and its absence hold for the method and conditions named. Binding seen in cells or lysates may run through a third protein. A yes stands for co-enrichment or nearness to the bait. Other partners may have been found. A no says only that the protein was not detected with the bait.

B1: endogenous TTI2, Q6NXR4 1-508 (protein)
chain: MELDSALEAPSQEDSNLSEELSHSAFGQAFSKILHCLARPEARRGNVKDAVLKDLGDLIEATEFDRLFEGTGARLRGMPETLGQVAKALEKYAAPSKEEEGGGDGHSEAAEKAAQVGLLFLKLLGKVETAKNSLVGPAWQTGLHHLAGPVYIFAITHSLEQPWTTPRSREVAREVLTSLLQVTECGSVAGFLHGENEDEKGRLSVILGLLKPDLYKESWKNNPAIKHVFSWTLQQVTRPWLSQHLERVLPASLVISDDYQTENKILGVHCLHHIVLNVPAADLLQYNRAQVLYHAISNHLYTPEHHLIQAVLLCLLDLFPILEKTLHWKGDGARPTTHCDEVLRLILTHMEPEHRLLLRRTYARNLPAFVNRLGILTVRHLKRLERVIIGYLEVYDGPEEEARLKILETLKLLMQHTWPRVSCRLVVLLKALLKLICDVARDPNLTPESVKSALLQEATDCLILLDRCSQGRVKGLLAKIPQSCEDRKVVNYIRKVQQVSEGAPYNGT
Regarding B1, the binding result is given as “no binding”.

The values are drawn from article PMC12582974.
